For experiment [1], the target named is T1, human PlGF-1 (human, UniProt P49763-2 19-149, limits assumed).
T1 construct: also called huPlGF-1; huPlGF
T1 sequence (looked up): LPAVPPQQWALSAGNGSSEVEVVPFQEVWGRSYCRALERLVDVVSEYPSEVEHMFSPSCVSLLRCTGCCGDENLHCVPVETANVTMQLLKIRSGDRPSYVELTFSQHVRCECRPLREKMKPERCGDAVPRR
Briefly: ELISA, huPlGF-1 coated, detected with anti-HA.

The target of experiment [2] is T1, human PlGF-1. Briefly: ELISA, plate coated with 1 µg/ml huPlGF-1, detection with murine anti-HA and goat anti-murine IgG-HRP, OPD. How it is done:
ELISA plates were coated ON with 1 μg/ml huPlGF-1 in PBS, 200 μL/well, 4° C. After blocking with 1% BSA, 1 hr, RT, a dilution series of scFv16D3/humanized scFv16D3 was added, 200 μL/well, the antibody fragment was allowed to bind for 1 hr, RT. Bound scFv16D3 was detected with murine anti-HA (180 μL/well, 1 hr RT) followed by incubation with goat-anti-murine IgG-HRP (Sigma), 170 μL/well, 1 hr, RT. The assay was developed with OPD.

Consider two molecules from US20110123525A1 (THROMBOGENICS N V, published 2011).

Results are given in words; binding and its absence hold for the method and conditions named. Some results given as binding are weak or reduced against the parent protein; the word gives no strength.

B1: humanized scFv of 16D3 (scFv)
scFv: QVQLQQSGAELVKPGASVKISCKASGYTFTDYYINWVKLAPGQGLEWIGWIYPGSGNTKYNEKFKGKATLTIDTSSSTAYMQLSSLTSEDTAVYFCVRDSPFFDYWGQGTLLTVSSGGGGSGGGGSGGGGSDIVLTQSPDSLAVSLGERVTMNCKSSQSLLNSGMRKSFLAWYQQKPGQSPKLLIYWASTRESGVPDRFTGSGSGTDFTLTISSVQAEDVAVYYCKQSYHLFTFGSGTKLEIKGSYPYDVPDYAGSHHHHHH
notes: also called humanized scFv16D3; scFvhp16D3mut
On to B1, for which the binding result in experiment [1] and in experiment [2] was “binds” in each case.

B2: scFv of murine antibody 16D3 (scFv)
scFv: QIQLQQSGPELVKPGASVKISCKASGYTFTDYYINWVKLKPGQGLEWIGWIYPGSGNTKYNEKFKGKATLTIDTSSSTAYMQLSSLTSEDTAVYFCVRDSPFFDYWGQGTTLTVSSGGGGSGGGGSGGGGSDIVLSQSPSSLAVSAGEKVTMRCKSSQSLLNSGMRKSFLAWYQQKPGQSPKLLIYWASTRESGVPDRFTGSGSGTDFTLTISSVQAEDLAVYYCKQSYHLFTFGSGTKLEIKGSYPYDVPDYAGSHHHHHH
notes: also called scFv16D3; scFv hp16D3
With B2, the binding entry in experiment [1] and in experiment [2] was “binds” in each case.
